Measurements reported in PubChem BioAssay AID1224827 (NIAID, 2016).
Here is an unselected part of about 3,800 deposited reagents. About 2,200 of them (57%) count as active. 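Active means a strong reporter change in either direction; calls are per siRNA, not per gene; qiagen siRNAs gave weaker effects.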 Entries without a mark were called inactive. The numbers tell different reagents against one gene apart. Reagent sequences are not shown.

- Purpose: 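Identify regulators of the macrophage TNF-alpha response to bacterial LPS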 (follow-up of hits)
- System: RAW264.7 G9 mouse macrophage reporter clone
- Reagent: single siRNA against mouse genes, 100 nM siRNA
- Time to read-out: siRNA for 2 days, then LPS about 16 h
- Challenge: bacterial lipopolysaccharide (LPS), 10 ng/ml, cells fixed after overnight (about 16 h) stimulation
- Read-out: 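TNF promoter reporter red fluorescence in nuclei, background subtracted, normalised per plate and to non-targeting control siRNA, as z-scores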
- Direction: TNF reporter z-score, mean and TNF reporter z-score: higher = stronger Tnf promoter reporter signal; gene median z, three same-vendor siRNAs: higher = stronger Tnf reporter signal for the gene
- Call rule: 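Active siRNA: replicate-mean z-score of 2 or more, or -2 or less; no calls for control wells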

| Target gene | reagent | TNF reporter z-score, mean | gene median z, three same-vendor siRNAs | TNF reporter z-score, repeat 1 | TNF reporter z-score, repeat 2 |
| --- | --- | --- | --- | --- | --- |
| Hs3st1 (heparan sulfate (glucosamine) 3-O-sulfotransferase 1) | 1 | -2.19 (active) | -2.68 | -1.62 | -2.77 |
| Hs3st1 (heparan sulfate (glucosamine) 3-O-sulfotransferase 1) | 2 | -2.29 (active) | -2.68 | -1.98 | -2.6 |
| Hs3st1 (heparan sulfate (glucosamine) 3-O-sulfotransferase 1) | 3 | -3.37 (active) | -2.68 | -3.77 | -2.97 |
| Hs3st1 (heparan sulfate (glucosamine) 3-O-sulfotransferase 1) | 4 | 2.19 (active) | 0.204 | 3.76 | 0.632 |
| Hs3st1 (heparan sulfate (glucosamine) 3-O-sulfotransferase 1) | 5 | 1.75 | 0.204 | 3.73 | -0.224 |
| Hs3st1 (heparan sulfate (glucosamine) 3-O-sulfotransferase 1) | 6 | -2.4 (active) | 0.204 | -3.12 | -1.69 |
| Rai2 (retinoic acid induced 2) | 1 | 0.551 | -0.0606 | 0.0982 | 1 |
| Rai2 (retinoic acid induced 2) | 2 | -0.245 | -0.0606 | -0.219 | -0.27 |
| Rai2 (retinoic acid induced 2) | 3 | -0.341 | -0.0606 | 0.169 | -0.85 |
| Rai2 (retinoic acid induced 2) | 4 | 2.72 (active) | -0.57 | 6.53 | -1.1 |
| Rai2 (retinoic acid induced 2) | 5 | 0.497 | -0.57 | 1.03 | -0.0392 |
| Rai2 (retinoic acid induced 2) | 6 | -3.7 (active) | -0.57 | -4.37 | -3.02 |
| Rps6kb1 (ribosomal protein S6 kinase B1) | 1 | -2.51 (active) | -3.73 | -2.03 | -2.99 |
| Rps6kb1 (ribosomal protein S6 kinase B1) | 2 | -3.35 (active) | -3.73 | -2.21 | -4.48 |
| Rps6kb1 (ribosomal protein S6 kinase B1) | 3 | -5.02 (active) | -3.73 | -5.08 | -4.96 |
| Rps6kb1 (ribosomal protein S6 kinase B1) | 4 | 6.08 (active) | 1.09 | 10.7 | 1.47 |
| Rps6kb1 (ribosomal protein S6 kinase B1) | 5 | 0.433 | 1.09 | 1.92 | -1.05 |
| Rps6kb1 (ribosomal protein S6 kinase B1) | 6 | -0.0889 | 1.09 | 0.717 | -0.895 |
| Plgrkt | 1 | -1.83 | -3.13 | -0.69 | -2.97 |
| Plgrkt | 2 | -3.59 (active) | -3.13 | -3.94 | -3.24 |
| Plgrkt | 3 | -3.84 (active) | -3.13 | -4.66 | -3.02 |
| Plgrkt | 4 | 1.89 | -0.27 | 3.77 | 0.00813 |
| Plgrkt | 5 | -0.368 | -0.27 | -0.0653 | -0.672 |
| Plgrkt | 6 | -0.545 | -0.27 | -0.474 | -0.617 |
| Raf1 (Raf1 proto-oncogene, serine/threonine kinase) | 1 | 1.29 | -2.63 | 1.08 | 1.51 |
| Raf1 (Raf1 proto-oncogene, serine/threonine kinase) | 2 | -2.63 (active) | -2.63 | -2.84 | -2.42 |
| Raf1 (Raf1 proto-oncogene, serine/threonine kinase) | 3 | -3.81 (active) | -2.63 | -3.59 | -4.04 |
| Raf1 (Raf1 proto-oncogene, serine/threonine kinase) | 4 | 0.627 | -1.35 | 1.31 | -0.0587 |
| Raf1 (Raf1 proto-oncogene, serine/threonine kinase) | 5 | -1.35 | -1.35 | -1.25 | -1.44 |
| Raf1 (Raf1 proto-oncogene, serine/threonine kinase) | 6 | -3.37 (active) | -1.35 | -3.22 | -3.52 |
| Pate6 (prostate and testis expressed 6) | 1 | 6.27 (active) | 3.76 | 4.22 | 8.33 |
| Pate6 (prostate and testis expressed 6) | 2 | 3.99 (active) | 3.76 | 3.3 | 4.68 |
| Pate6 (prostate and testis expressed 6) | 3 | -3.92 (active) | 3.76 | -4.02 | -3.83 |
| Pate6 (prostate and testis expressed 6) | 4 | 2.46 (active) | 0.652 | 4.87 | 0.0509 |
| Pate6 (prostate and testis expressed 6) | 5 | 1.35 | 0.652 | 2.9 | -0.201 |
| Pate6 (prostate and testis expressed 6) | 6 | 0.191 | 0.652 | 1.25 | -0.87 |
| Aqp7 (aquaporin 7) | 1 | -2.4 (active) | -3.23 | -2.73 | -2.08 |
| Aqp7 (aquaporin 7) | 2 | -3.61 (active) | -3.23 | -3.06 | -4.17 |
| Aqp7 (aquaporin 7) | 3 | -3.63 (active) | -3.23 | -3.85 | -3.4 |
| Aqp7 (aquaporin 7) | 4 | 3.1 (active) | -0.728 | 4.87 | 1.32 |
| Aqp7 (aquaporin 7) | 5 | -0.806 | -0.728 | 0.117 | -1.73 |
| Aqp7 (aquaporin 7) | 6 | -2.37 (active) | -0.728 | -3.16 | -1.57 |
| Dnajc27 (DnaJ heat shock protein family (Hsp40) member C27) | 1 | -0.369 | -2.39 | 1.08 | -1.82 |
| Dnajc27 (DnaJ heat shock protein family (Hsp40) member C27) | 2 | -2.39 (active) | -2.39 | -1.97 | -2.81 |
| Dnajc27 (DnaJ heat shock protein family (Hsp40) member C27) | 3 | -4.05 (active) | -2.39 | -4.66 | -3.43 |
| Dnajc27 (DnaJ heat shock protein family (Hsp40) member C27) | 4 | 4.01 (active) | 0.186 | 5.85 | 2.18 |
| Dnajc27 (DnaJ heat shock protein family (Hsp40) member C27) | 5 | 0.186 | 0.186 | 1.43 | -1.05 |
| Dnajc27 (DnaJ heat shock protein family (Hsp40) member C27) | 6 | -2.53 (active) | 0.186 | -3.33 | -1.73 |
| Hexb (hexosaminidase B) | 1 | 5.36 (active) | 0.116 | 2.57 | 8.14 |
| Hexb (hexosaminidase B) | 2 | 0.116 | 0.116 | -1.65 | 1.88 |
| Hexb (hexosaminidase B) | 3 | -2.69 (active) | 0.116 | -2.29 | -3.09 |
| Hexb (hexosaminidase B) | 4 | 2.24 (active) | 1.17 | 3.93 | 0.56 |
| Hexb (hexosaminidase B) | 5 | 0.877 | 1.17 | 1.78 | -0.0263 |
| Hexb (hexosaminidase B) | 6 | 0.739 | 1.17 | 2.13 | -0.648 |
| Sytl5 (synaptotagmin-like 5) | 1 | 0.747 | -3.17 | 1.07 | 0.423 |
| Sytl5 (synaptotagmin-like 5) | 2 | -3.34 (active) | -3.17 | -4.92 | -1.76 |
| Sytl5 (synaptotagmin-like 5) | 3 | -4.6 (active) | -3.17 | -4.58 | -4.61 |
| Sytl5 (synaptotagmin-like 5) | 4 | 2.99 (active) | 0.771 | 4.95 | 1.03 |
| Sytl5 (synaptotagmin-like 5) | 5 | 0.415 | 0.771 | 1.23 | -0.405 |
| Sytl5 (synaptotagmin-like 5) | 6 | -0.378 | 0.771 | 0.515 | -1.27 |

Part of the list above, reformatted:
Target gene,reagent,"TNF reporter z-score, mean","gene median z, three same-vendor siRNAs","TNF reporter z-score, repeat 1","TNF reporter z-score, repeat 2"
Rps6kb1 (ribosomal protein S6 kinase B1),3,-5.02 (active),-3.73,-5.08,-4.96
Rps6kb1 (ribosomal protein S6 kinase B1),4,6.08 (active),1.09,10.7,1.47
Rps6kb1 (ribosomal protein S6 kinase B1),5,0.433,1.09,1.92,-1.05
Rps6kb1 (ribosomal protein S6 kinase B1),6,-0.0889,1.09,0.717,-0.895
Plgrkt,1,-1.83,-3.13,-0.69,-2.97
Plgrkt,2,-3.59 (active),-3.13,-3.94,-3.24
Plgrkt,3,-3.84 (active),-3.13,-4.66,-3.02
